Publication PMC12352869
These are yes or no findings as the source states them, for the method shown. Binding seen in cells or lysates may run through a third protein.

Molecular target: T1, YEATS2 in HEK293T cells (human) (UniProt Q9ULM3)
T1 sequence: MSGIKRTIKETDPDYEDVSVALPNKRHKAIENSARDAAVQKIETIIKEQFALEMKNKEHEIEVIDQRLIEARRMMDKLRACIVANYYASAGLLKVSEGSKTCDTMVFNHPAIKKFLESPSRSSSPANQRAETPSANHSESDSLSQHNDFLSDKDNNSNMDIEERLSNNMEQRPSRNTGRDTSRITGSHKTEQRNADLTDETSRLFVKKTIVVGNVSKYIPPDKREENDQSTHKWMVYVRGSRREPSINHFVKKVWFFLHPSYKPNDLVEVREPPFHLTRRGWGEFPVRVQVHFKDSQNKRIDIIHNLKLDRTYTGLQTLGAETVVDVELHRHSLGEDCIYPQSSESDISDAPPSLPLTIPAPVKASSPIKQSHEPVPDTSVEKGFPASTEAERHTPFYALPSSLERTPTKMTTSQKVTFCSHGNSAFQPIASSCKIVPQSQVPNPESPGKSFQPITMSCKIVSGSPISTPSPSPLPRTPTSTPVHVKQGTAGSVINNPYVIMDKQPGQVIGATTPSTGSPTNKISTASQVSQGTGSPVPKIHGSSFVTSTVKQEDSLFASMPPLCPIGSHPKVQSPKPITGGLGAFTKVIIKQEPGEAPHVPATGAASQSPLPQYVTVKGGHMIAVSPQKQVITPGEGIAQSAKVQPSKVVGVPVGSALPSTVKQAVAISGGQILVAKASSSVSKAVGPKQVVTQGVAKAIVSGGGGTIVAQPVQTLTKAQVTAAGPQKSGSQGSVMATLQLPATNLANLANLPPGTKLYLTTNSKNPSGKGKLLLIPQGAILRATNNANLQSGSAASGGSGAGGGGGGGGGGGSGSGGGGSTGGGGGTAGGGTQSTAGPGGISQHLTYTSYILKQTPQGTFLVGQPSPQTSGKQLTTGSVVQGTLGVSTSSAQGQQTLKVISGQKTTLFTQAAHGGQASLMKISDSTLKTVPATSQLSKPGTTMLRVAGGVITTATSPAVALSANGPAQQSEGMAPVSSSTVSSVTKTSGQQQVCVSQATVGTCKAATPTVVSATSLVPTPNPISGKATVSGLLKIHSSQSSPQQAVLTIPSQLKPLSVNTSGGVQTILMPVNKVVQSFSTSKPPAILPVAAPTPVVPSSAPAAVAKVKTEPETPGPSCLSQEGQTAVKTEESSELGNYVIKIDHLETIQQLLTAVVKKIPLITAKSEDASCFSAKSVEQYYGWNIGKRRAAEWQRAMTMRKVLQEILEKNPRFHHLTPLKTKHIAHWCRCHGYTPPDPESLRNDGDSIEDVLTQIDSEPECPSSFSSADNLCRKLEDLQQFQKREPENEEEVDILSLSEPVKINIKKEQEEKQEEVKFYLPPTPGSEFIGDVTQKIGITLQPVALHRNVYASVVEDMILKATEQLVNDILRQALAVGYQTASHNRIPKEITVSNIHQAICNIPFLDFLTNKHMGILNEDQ
Experiment: co-IP; co-immunoprecipitation and immunoblot in HEK293T cells; bait and antibodies not stated for this experiment

B1: glutaryl-CoA dehydrogenase (GCDH) in HEK293T cells (enzyme, UniProt Q92947 45-438)
chain: RPEFDWQDPLVLEEQLTTDEILIRDTFRTYCQERLMPRILLANRNEVFHREIISEMGELGVLGPTIKGYGCAGVSSVAYGLLARELERVDSGYRSAMSVQSSLVMHPIYAYGSEEQRQKYLPQLAKGELLGCFGLTEPNSGSDPSSMETRAHYNSSNKSYTLNGTKTWITNSPMADLFVVWARCEDGCIRGFLLEKGMRGLSAPRIQGKFSLRASATGMIIMDGVEVPEENVLPGASSLGGPFGCLNNARYGIAWGVLGASEFCLHTARQYALDRMQFGVPLARNQLIQKKLADMLTEITLGLHACLQLGRLKDQDKAAPEMVSLLKRNNCGKALDIARQARDMLGGNGISDEYHVIRHAMNLEAVNTYEGTHDIHALILGRAITGIQAFTASK
Question: Which binding does the source give for B1 here?
Answer: no binding
